Laboratory results as given in paper PMC6330308, “Light-Induced Thiol Oxidation of Recoverin Affects Rhodopsin Desensitization” (Frontiers in Molecular Neuroscience, 2018).
These are yes or no findings as the source states them, for the method shown. Some results given as binding are weak or reduced against the parent protein; the word gives no strength.

Legend:
[1] = target: Rabbit recoverin (rabbit (endogenous in retina)) (UniProt G1T9K5); assay: non-reducing Western blotting; recoverin immunoaffinity-purified from retinal extracts of illuminated (rat: 2,500 lx, 14 h; rabbit: 2,200 lx or 30,000 lx, 3 h) or dark-adapted eyes; non-reducing conditions; anti-recoverin antibodies
[2] = target: Rabbit recoverin (rabbit (endogenous in retina)) (UniProt G1T9K5); assay: reducing Western blotting; the same recoverin fractions from rat and rabbit retinas under reducing conditions; anti-recoverin antibodies

B1: Rabbit recoverin (protein, UniProt G1T9K5 1-202)
chain: MGNSKSGALSKEILEDLQLNTKFTEEELCTWYQSFLKECPSGRITRQEFESIYAKFFPDADPKAYAQHVFRSFDANSDGTLDFKEYVIALHMTTAGKPSQKLEWAFSLYDVDGNGAISKNEVLEIVMAIFKMINPEDVKHLPDDENTPEKRTEKIWGFFGKKDDDKLTEEEFIEGTMANKEILRLIQFEPQKVKERIKEKKQ
In the case of B1, the binding [1] is reported as “binds” and the binding [2] is reported as “no binding (condition: under reducing conditions)”.
